# Earlier results, collected in paper PMC11052071, “Novel JAK Inhibitors to Reduce Graft-Versus-Host Disease after Allogeneic Hematopoietic Cell Transplantation in a Preclinical Mouse Model” (Molecules, 2024).
# System: PKN1
# Settings: murine and human whole-kinome analyses; cited from earlier work
smiles,measurement,value
"CCS(=O)(=O)N1CC(CC#N)(n2cc(-c3ncnc4[nH]ccc34)cn2)C1 [BARI, baricitinib, reference compound]",inhibition of off target PKN1,inhibited by BARI
